For 63 compounds, AC50 results are on record in PubChem BioAssay AID493014 (National Center for Advancing Translational Sciences (NCATS), 2011).

This test can be described thus: qHTS Assay to Find Inhibitors of Chronic Active B-Cell Receptor Signaling. The settings on record: ABC-DLBCL IkBa-CBG/CBR reporter, luminescence ratio (green luciferase fused to IkBa over red control in TMD8 lymphoma cells), 4 h. The gist of the method: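 Cell line TMD8 (human ABC DLBCL), stably expressing tet-inducible CBG68-IkBa fusion and CBR; IMDM/0.5% FBS; cpd up to 46 uM; dox induction, 4 h, 37C/5% CO2; dual luminescence; green/red ratio; MG132 control.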
A general note: In qHTS, concentration-response curves come from the screen itself.

[1] abbreviates: measured here: CBR red luminescence, cell number.
Setting [2] is: measured here: IkBa-CBG green luminescence.

The structures appear in SMILES notation. The list shows a part of the results. Further columns of the screen follow, without active or inactive calls. The list favours compounds with an active or inconclusive main result. The note in brackets gives the kind of curve behind each potency; many fits are weak.

Turning to `CC(SCc1ccccc1)C(=O)N/N=C/c1cc2c(cc1Br)OCO2` (stereo unspecified), the AC50 (as a rule, the concentration giving half of the maximal activity seen) under setting [1] was 35.5 µM [falling, single point].

Consider `O=C(O)c1ccc(S(=O)(=O)NC2CCCCC2)cc1`, for which the AC50 under setting [1] is 3.16 µM [rising, partial curve].

Consider `CCN(CC)C(=O)c1sc2c(c1C)c(=O)n(Cc1ccccc1)c(=O)n2Cc1ccc(Cl)cc1`, for which the AC50 under setting [1] is 3.16 µM [falling, partial curve].

With `O=C1Nc2cc(C(=O)N3CCC(N4CCCCC4)CC3)ccc2S/C1=C\c1ccccc1`, the AC50 under setting [1] was 35.5 µM [falling, single point].

On to `CC1(C)CSC(=NCCc2ccccc2)N1`, for which the AC50 under setting [1] was 0.282 µM [rising, full curve, poor fit].

For the compound `Cc1cc(C(F)(F)F)n(-c2nc(C(=O)NNS(=O)(=O)c3ccccc3[N+](=O)[O-])cs2)n1`, under setting [1], the AC50 was 35.5 µM [falling, single point].

As to `Fc1ccc(C2Nc3cccc4cccc(c34)N2)cc1`, the AC50 under setting [1] was 35.5 µM [falling, single point].

On to `CC(=O)c1ccc2noc(-c3ccccc3)c2c1`, for which, under setting [2], the AC50 is 15.8 µM [rising, partial curve, poor fit].

In the case of `CCOC(=O)c1sc(NC(=O)c2cccs2)cc1C`, the AC50 under setting [1] is 0.0651 µM [falling, full curve, poor fit].

`COc1cc(/C=N/n2c(SC)nnc(C(C)(C)C)c2=O)ccc1O`: under setting [1], the AC50 was 1.58 µM [rising, partial curve, poor fit].

Take `COc1ccc(OCC2CCCN(Cc3nc(CC4CC4)no3)C2)cc1` (stereo unspecified): the AC50 under setting [1] was 11.2 µM [falling, single point].

Consider `COC(=O)CCc1sc(Nc2ccccc2)nc1-c1ccc(OC)cc1`, for which the AC50 under setting [1] was 0.517 µM [falling, full curve, poor fit].

Consider `CC(=O)Nc1ccc(NC(=O)C(C)OC(=O)c2cc(S(=O)(=O)N(C)C)ccc2N2CCCC2)cc1` (stereo unspecified), for which, under setting [1], the AC50 was 23.1 µM [rising, partial curve].

Consider `Cn1nnc2c(NCCc3ccccc3)ncnc21`, for which, under setting [1], the AC50 was 35.5 µM [falling, single point].

As to `CCCN(CCC)CCCNC(=O)c1cc2c(=O)n(C)c3ccccc3c2n1C`, the AC50 under setting [1] is 14.1 µM [falling, partial curve, poor fit].

With `O=C(NNC(=S)Nc1cccc(C(F)(F)F)c1)c1cccc(Cl)c1`, the AC50 under setting [1] is 32.6 µM [falling, single point].

For the compound `Cc1ccc2nc3c(cc2c1)c(NC(=O)c1ccco1)nn3CC(C)C`, the half-maximal activity concentration (AC50) under setting [1] was 0.501 µM [falling, full curve].

Regarding `Cc1cc(C)cc(NS(=O)(=O)c2ccc(Oc3ncc(C(F)(F)F)cc3Cl)cc2)c1`, the AC50 under setting [1] was 20.6 µM [falling, single point].

Consider `O=C(CSc1nnc(-c2ccccn2)o1)Nc1ccc(F)cc1`, for which the AC50 under setting [1] is 5.62 µM [falling, partial curve].

As for `O=C(C1CCCO1)N1CCN(S(=O)(=O)c2ccc(F)cc2)CC1` (stereo unspecified), under setting [1], the AC50 is 1.03 µM [falling, partial curve, poor fit].

In the case of `Cc1ccc(CNC(=O)C2CCN(S(=O)(=O)N3CCC4(CC3)OCCO4)CC2)cc1`, the AC50 under setting [1] is 29.1 µM [rising, single point].

As for `COc1cccc(/C=C2\SC(=S)N(CCC(=O)NC3C=CS(=O)(=O)C3)C2=O)c1` (stereo unspecified), the half-maximal activity concentration (AC50) under setting [1] is 10 µM [falling, partial curve].

With `COc1ccc(NC(=O)CC2SC(=O)NC2=O)cc1` (stereo unspecified), the AC50 under setting [1] was 0.112 µM [rising, full curve, poor fit].

With `CC(C)COC(=O)n1c(SCC(N)=O)nc2ccccc21`, the AC50 under setting [1] was 10 µM [falling, partial curve, poor fit].

Regarding `O=C(COC(=O)c1cc([N+](=O)[O-])ccc1NCc1ccccc1)NC1CCCc2ccccc21` (stereo unspecified), the AC50 under setting [1] is 6.51 µM [rising, single point].

Consider `CCN(CC(=O)NCc1cccs1)S(=O)(=O)c1ccccc1Cl`, for which the AC50 under setting [1] was 23.1 µM [falling, partial curve, poor fit].

As to `COC(=O)C(=C/C(C)=C/c1cccs1)C(=O)OC`, the AC50 under setting [1] is 35.5 µM [falling, single point].

On to `CC(=O)N(CCc1ccccc1)Cc1cc2cc(C)ccc2[nH]c1=O`, for which the AC50 under setting [1] is 17.8 µM [rising, single point].

In the case of `Cc1ccc(-c2[nH]c3cc(C(=O)NCCCn4ccnc4)ccc3c(=O)c2O)cc1`, the AC50 under setting [1] is 1.78 µM [falling, full curve, poor fit].

Consider `CN1C(=O)c2ccc(C(=O)Nc3ccccc3O)cc2C1=O`, for which, under setting [1], the AC50 was 8.91 µM [falling, partial curve].

With `Cc1cc(-c2nc3ncccc3o2)ccc1NC(=O)CC(C)C`, under setting [1], the AC50 was 1.64 µM [falling, full curve, poor fit].

For the compound `CCCCCCCNC(=O)COc1ccc2c(c1)C(=O)CC(C)(C)O2`, the AC50 under setting [1] is 29.1 µM [rising, single point].

Consider `CN(C(=O)CSc1nc2scc(-c3ccccc3)c2c(=O)[nH]1)c1ccccc1`, for which the AC50 under setting [1] is 0.13 µM [falling, full curve, poor fit].

`N#CCC(=O)Nc1ccc(C(=O)OCC(=O)Nc2ccccc2-c2ccccc2)cc1`: the AC50 under setting [1] is 35.5 µM [falling, single point].

Regarding `O=C(Cc1cccc2ccccc12)N/N=C/c1ccc(O)c([N+](=O)[O-])c1`, the AC50 under setting [1] was 31.6 µM [falling, single point].

With `O=C(Nc1ccccc1C(=O)O)c1cccc(NC(=O)c2ccc(Br)o2)c1`, the AC50 under setting [1] is 23.1 µM [falling, single point].

In the case of `COc1ccc(C(=O)N2CCCC(O)C2)cc1OC1CCN(C(C)C)CC1` (stereo unspecified), the AC50 under setting [1] is 2 µM [falling, partial curve, poor fit].

Turning to `Cc1cc(N/N=C/c2ccccc2)nc(NCc2ccccc2)n1`, the AC50 is, setting by setting: under setting [1], 11.6 µM [rising, partial curve, poor fit]; under setting [2], 32.6 µM [falling, partial curve, poor fit].

In the case of `CCOc1ccc(Cl)cc1C1=CC(=O)C[C@H](c2ccc(OC)cc2)C1`, the AC50 is 1.3 µM [falling, full curve, poor fit] under setting [1] and 5.8 µM [falling, partial curve, poor fit] under setting [2].

As for `CCCc1nc2c(nnn2Cc2ccccc2F)c(=O)[nH]1`, the AC50 under setting [1] was 29.1 µM [falling, single point].

In the case of `Cc1cccc(NC(=O)c2oc(=O)c3ccccc3c2-c2ccccc2)c1C`, the AC50 under setting [1] was 8.2 µM [rising, partial curve].

On to `COc1ccccc1NC(=S)NC1CCCCCC1`, for which, under setting [1], the concentration at half-maximal activity (AC50) is 2.06 µM [rising, partial curve, poor fit].

In the case of `Cc1ccc(-c2nc3ccccc3c(=O)o2)cc1`, the AC50 under setting [1] is 7.94 µM [falling, partial curve, poor fit].

As for `O=C(N/N=C/c1ccc(O)cc1)c1cncc(Br)c1`, the AC50 under setting [1] is 20 µM [falling, single point].

As to `O=C(NNC(=O)c1cc2ccccc2o1)c1ccc(Cl)cc1`, under setting [1], the half-maximal activity concentration (AC50) is 5.01 µM [falling, full curve, poor fit].

Regarding `CCOc1ccc2[nH]c(=O)c(CN(Cc3ccco3)C(CC)c3nnnn3Cc3ccccc3)cc2c1` (stereo unspecified), the AC50 under setting [1] is 35.5 µM [falling, single point].

As to `COC(=O)c1ccc(NC(=O)N2CCCC(C(=O)c3ccccc3OC)C2)cc1` (stereo unspecified), under setting [1], the AC50 was 0.398 µM [falling, full curve, poor fit].

As to `CN1CCN(NC(=O)c2cn(-c3ccccc3)nc2-c2cccc(Br)c2)CC1`, the AC50 under setting [1] is 31.6 µM [falling, single point].

As for `c1ccc(CSc2nnc(-c3cccs3)n2Cc2ccco2)cc1`, the AC50 under setting [1] was 2.59 µM [falling, partial curve, poor fit].

Take `COc1ccc(/C=C(\C#N)C(=O)OCCNC(=O)c2ccncc2)cc1`: the AC50 under setting [1] was 0.501 µM [falling, partial curve, poor fit].

`Cc1ccc(NC(=O)COC(=O)C2CC2C)c(S(=O)(=O)N2CCCCC2)c1` (stereo unspecified): the AC50 under setting [1] is 0.562 µM [rising, full curve, poor fit].

On to `COc1ccc(C2C(C#N)=C(N)N(c3ncn[nH]3)C3=C2C(=O)CCC3)cc1` (stereo unspecified), for which the AC50 under setting [1] is 1.26 µM [rising, full curve, poor fit].

For `CCOc1ccc(NC(=O)Nc2ccccc2C(N)=O)cc1`, the AC50 under setting [1] is 17.8 µM [falling, partial curve, poor fit].

Consider `Cc1c(Cl)cccc1NC(=O)CN1CCN(CCN=CC2=C(O)CC(c3ccccc3)CC2=O)CC1` (stereo unspecified), for which, under setting [1], the AC50 is 2.51 µM [falling, partial curve, poor fit].

With `Cc1ccc(OCC(=O)N/N=C/C=C/c2ccco2)c(Br)c1`, the AC50 by setting is: under setting [1], 12.6 µM [rising, single point]; under setting [2], 14.1 µM [falling, partial curve, poor fit].

Consider `Nc1ccc(C(=O)N2N=C(c3ccccc3)CC2(O)C(F)(F)F)cc1` (stereo unspecified), for which the AC50 under setting [1] is 0.891 µM [falling, full curve, poor fit].

With `CC(=O)c1cccc(NC(=O)CNC(=O)c2cc3ccccc3o2)c1`, the AC50 under setting [1] is 20 µM [rising, partial curve, poor fit].

`O=C(CN1c2ccccc2Sc2ccccc21)NNC(=O)Nc1ccc(Cl)cc1`: the AC50 under setting [1] was 7.08 µM [falling, partial curve].

In the case of `CCN(CC(=O)Nc1c(F)cccc1F)C(=O)C1=COCCO1`, the AC50 under setting [1] was 16.4 µM [rising, single point].

As to `Cn1c(/N=C/c2ccc3c(c2)OCO3)nc2ccccc21`, the concentration at half-maximal activity (AC50) under setting [1] was 17.8 µM [rising, partial curve, poor fit].

With `CC1CCCC(NC(=O)COC(=O)Cc2ccc(Br)cc2)C1C` (stereo unspecified), under setting [1], the AC50 is 35.5 µM [rising, single point].

Turning to `Oc1ccc(-c2cnns2)c(O)c1`, the AC50 under setting [1] was 25.9 µM [falling, partial curve, poor fit].

As for `CCCCN(CC)S(=O)(=O)N1CCC(C(=O)NCc2ccc(F)cc2)CC1`, the AC50 under setting [1] is 2.91 µM [rising, partial curve].
